Test results reported in paper PMC9205131.
Results are given in words; binding and its absence hold for the method and conditions named. Binding seen in cells or lysates may run through a third protein. Some results given as binding are weak or reduced against the parent protein; the word gives no strength.

Protein sequences, listed by entry. Tags and fused reporters are not part of them.
UniProt P09874: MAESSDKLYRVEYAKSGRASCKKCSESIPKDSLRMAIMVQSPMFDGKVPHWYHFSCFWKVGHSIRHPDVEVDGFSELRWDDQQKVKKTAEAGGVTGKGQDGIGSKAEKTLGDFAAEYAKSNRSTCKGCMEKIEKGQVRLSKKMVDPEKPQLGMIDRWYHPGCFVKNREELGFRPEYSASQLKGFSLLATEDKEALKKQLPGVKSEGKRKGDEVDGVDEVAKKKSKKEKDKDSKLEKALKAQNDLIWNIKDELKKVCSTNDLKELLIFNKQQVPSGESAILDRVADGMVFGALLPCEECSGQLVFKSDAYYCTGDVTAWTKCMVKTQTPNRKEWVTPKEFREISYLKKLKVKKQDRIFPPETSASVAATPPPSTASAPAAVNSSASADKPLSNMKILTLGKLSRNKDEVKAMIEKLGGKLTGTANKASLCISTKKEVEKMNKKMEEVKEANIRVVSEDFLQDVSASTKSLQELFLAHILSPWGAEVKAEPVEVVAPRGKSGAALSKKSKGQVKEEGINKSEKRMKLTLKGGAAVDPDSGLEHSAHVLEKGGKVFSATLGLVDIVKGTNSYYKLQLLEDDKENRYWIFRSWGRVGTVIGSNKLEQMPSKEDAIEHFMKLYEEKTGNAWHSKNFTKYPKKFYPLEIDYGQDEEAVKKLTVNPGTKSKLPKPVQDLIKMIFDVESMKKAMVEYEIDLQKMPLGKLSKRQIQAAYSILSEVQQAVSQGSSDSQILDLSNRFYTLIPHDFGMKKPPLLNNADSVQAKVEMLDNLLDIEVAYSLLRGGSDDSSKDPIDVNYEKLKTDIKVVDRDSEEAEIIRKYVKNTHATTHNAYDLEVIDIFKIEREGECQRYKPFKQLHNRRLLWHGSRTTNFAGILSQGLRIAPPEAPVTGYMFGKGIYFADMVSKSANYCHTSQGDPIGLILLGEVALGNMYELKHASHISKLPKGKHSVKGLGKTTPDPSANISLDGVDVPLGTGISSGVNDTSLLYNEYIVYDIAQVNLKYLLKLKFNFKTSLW

Key:
YFP-p53 = YFP-p53 (UniProt P04637); test: co-IP; exogenous co-immunoprecipitation from HEK293T cells transfected with YFP-p53 and EGFP-SIRT6; Western blot
[1] = molecular target: SIRT6 (human (endogenous in HCT116)) (UniProt Q8N6T7); test: co-IP; endogenous co-immunoprecipitation from HCT116 cell lysate; about 6 ug of p53 antibodies to 1 ml lysate, 2 h at ambient temperature, protein A-agarose, 5 washes, Western blot
[2] = molecular target: p53 (human (endogenous in HCT116)) (UniProt P04637); test: as above

Q: For EGFP-SIRT6 (from UniProt Q8N6T7 1-355), which binding (YFP-p53) is on record?
A: binds

Q: “Poly [ADP-Ribose] polymerase 1 (from UniProt P09874 1-1014)” was tested. Which binding [1] did it give?
A: binds

Q: For SIRT6 (from UniProt Q8N6T7 1-355), which binding [2] is on record?
A: binds
